Source: patent US20210260069A1, “IRE1a INHIBITOR IN COMBINATION WITH CANCER [sequence] AGENT FOR CANCER TREATMENT” (Fosun Orinove PharmaTech, Inc., priority 2018, published 2021)
For at least one compound, name, drawing or mass did not settle the structure.

System: XBP1s
Experiment: Determination of XBP1s level induced by various compounds (RT-qPCR splicing assay), several cell lines
Assay type: cell-based, human
Conditions: for induction of XBP1s: in a time, cell or concentration dependent manner
Method: This method applies to any mammalian cell line but was typically applied to human MM1s myeloma cells for EC50 and RPMI […] plasmacytoma cells for confirmation of selected compounds. Briefly, cells were grown in standard conditions and spread into 96 well tissue culture plates. Cells were treated with compounds with indicated concentration using serial dilutions. DTT (dithiothreitol) or compounds were added at the same time and cells were harvested after indicated hour's treatment. Cells treated with DTT alone were used as 100% XBP1s positive controls and cell left untreated were used as base line XBP1s level.
Splicing Assay: Total RNA was isolated from cells treated with compounds using Applied Biosystems RNAqueous kit. 1 μg of total RNA was reverse transcribed using Oligo dt (12-18) (Invitrogen). The cDNA was then amplified at 95° C. for 8 min and 30 sec, then 40 cycles at 95° C. for 15 sec and 63° C. for 1 min. Samples were run against a purified standard curve for both spliced and unspliced XBP1, and further normalized to internal house-keeping gene GAPDH.

Structure (SMILES) | induction of XBP1s | ER stress measured by XBP1s level (FIG. 6) (Hep G2, MCF-7 and RPMI 8226 cells, 1, 2 or 4 hours) | ER stress measured by XBP1s level (FIG. 1) (MM1s, HEK293, RPMI 8226 and H929 cells)
Cc1nc(Nc2ncc(C(=O)Nc3c(C)cccc3Cl)s2)cc(N2CCN(CCO)CC2)n1 [Dasatinib] | able to induce XBP1s | – | –
C[C@]12O[C@H](C[C@]1(O)CO)n1c3ccccc3c3c4c(c5c6ccccc6n2c5c31)CNC4=O [Lestaurtinib] | able to induce XBP1s | enhanced | enhanced
